Each structure is given as a SMILES string. This is one part of the list. Single values are uncertain here, since repeats match poorly.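 Researchers measured free-swimming zebrafish larvae's O-bend response probability to dark flashes (naive: first five; training: remaining flashes of four 60-flash blocks; test: later 60-flash block) and OMR turning toward alternating leftward/rightward LED motion. Six treated larvae were compared to sixty 0.1% DMSO controls, with |SSMD|≥2 marking a hit.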

For this test, the system named is Danio rerio larvae (5 dpf, TLF). The experiment in a line: Prob-Test (SSMD vs DMSO vehicle); higher = higher than vehicle (e.g. higher dark-flash O-bend response probability, or better optomotor performance). To be noted: 10 µM; pre-incubation: 30-90 min.
`CC[C@@H](C)[C@@H]1NC(=O)[C@@H](CCCN)NC(=O)[C@@H](NC(=O)[C@@H](NC(=O)[C@@H](CCC(=O)[O-])NC(=O)[C@H](CC(C)C)NC(=O)C2CN=C([C@@H](N)[C@@H](C)CC)S2)[C@H](C)CC)CCCCNC(=O)[C@H](CC(N)=O)NC(=O)[C@@H](CC(=O)[O-])NC(=O)[C@H](Cc2c[nH]cn2)NC(=O)[C@H](Cc2ccccc2)NC1=O.[Zn+2]` (stereo not given in full) [Bacitracin zinc] came in with a Prob-Test of -0.268. The same measure for `CCc1cncnc1N1CCN(Cc2nc3cc(C(F)(F)F)ccc3[nH]2)CC1`: 0.00135; for `N[C@H](Cc1ccccc1)C(=O)O` [D-Phenylalanine]: 0.477; for `C[C@@H]1CC(=O)NN=C1c1ccc(NN=C(C#N)C#N)cc1` [Levosimendan]: 0.0478.

`C#CCC(Cc1cnc2nc(N)nc(N)c2n1)c1ccc(C(=O)N[C@@H](CCC(=O)O)C(=O)O)cc1` (stereo not given in full) [Pralatrexate] had a Prob-Test of -0.457. The same measure for `O=C(O)CCc1nc2ccccc2[nH]1` [Procodazole]: -0.334; for `C[C@H]1[C@H](O)O[C@H]2O[C@@]3(C)CC[C@H]4[C@@H](C)CC[C@@H]1[C@@]24OO3` [Dihydroartemisinin (DHA)]: -0.128. As to `C[N+](C)(C)CCO.[Cl-]` [Choline Chloride], the Prob-Test is -0.477.

Turning to `Cl.NC(CO)C(=O)NNCc1ccc(O)c(O)c1O` (stereo not given) [Benserazide HCl], the Prob-Test was -0.000764. The same measure for `CC(C)N(CCCNC(=O)Nc1ccc(C(C)(C)C)cc1)C[C@H]1O[C@@H](n2cc(Br)c3c(N)ncnc32)[C@H](O)[C@@H]1O`: -0.171; for `NC(N)=NCCN1CCCCCCC1.NC(N)=NCCN1CCCCCCC1.O=S(=O)(O)O` [Guanethidine Sulfate]: -0.0238. The compound `O=C(COc1ccc(C(=O)c2ccccc2)cc1)NC1CCN(Cc2ccccc2)CC1` [AdipoRon] came in with a Prob-Test of -1.25. Consider `COC(=O)Nc1nc2ccc(Sc3ccccc3)cc2[nH]1` [Fenbendazole], for which the Prob-Test is -0.678. In turn, `O=C(O)[C@H](Cc1c[nH]c2ccccc12)N1C(=O)c2ccccc2C1=O` displayed a Prob-Test of -0.379.

In the case of `COc1cc2c(Oc3ccc(NC(=O)C4(C(=O)Nc5ccc(F)cc5)CC4)cc3F)ccnc2cc1OCCCN1CCOCC1`, the Prob-Test is -1.53. The same measure for `Cc1ccc([C@@H]2O[C@H](CO)[C@@H](O)[C@H](O)[C@H]2O)cc1Cc1ccc(-c2ccc(F)cc2)s1` [Canagliflozin]: -0.42. The same measure for `Cl.Cl.NC1(c2ccc(-c3nc4ccn5c(=O)[nH]nc5c4cc3-c3ccccc3)cc2)CCC1`: 0.834; for `CNC(=O)c1cc(COc2nnc(Nc3ccc(Cl)cc3)c3ccoc23)ccn1` [Telatinib]: -0.136. Turning to `CCOC(=O)[C@H](CCc1ccccc1)N[C@@H](C)C(=O)N1[C@@H](C(=O)O)C[C@@H]2CCC[C@@H]21` [Ramipril], the Prob-Test was 0.527. In turn, `CN(C)CC/C=C1\c2ccccc2COc2ccc(CC(=O)O)cc21.Cl` [Olopatadine HCl] came in with a Prob-Test of 0.0237. The same measure for `O=C([O-])[C@H](CC(=O)N1C[C@H]2CCCC[C@H]2C1)Cc1ccccc1.O=C([O-])[C@H](CC(=O)N1C[C@H]2CCCC[C@H]2C1)Cc1ccccc1.[Ca+2]` [Mitiglinide calcium]: -0.328. `Nc1nc(N)c2nc(-c3ccccc3)c(N)nc2n1` [Triamterene]: the Prob-Test stood at 0.38. The same measure for `CCn1c(-c2nonc2N)nc2c(C#CC(C)(C)O)ncc(OC[C@H]3CCCNC3)c21`: -0.0845. Turning to `O=C(O)CCc1nc(-c2ccccc2)c(-c2ccccc2)o1` [Oxaprozin], the Prob-Test was -0.846. The same measure for `Cc1c(OCC(F)(F)F)ccnc1CS(=O)c1nc2ccccc2[nH]1` (stereo not given) [Lansoprazole]: -0.313. The same measure for `CCCC(=O)O[C@@]1(C(=O)COC(C)=O)CC[C@H]2[C@@H]3C[C@H](F)C4=CC(=O)C=C[C@]4(C)[C@]3(F)[C@H](O)C[C@@]21C` [Difluprednate]: -0.438; for `COc1ccc(C2=NC(c3ccc(Cl)cc3)C(c3ccc(Cl)cc3)N2C(=O)N2CCNC(=O)C2)c(OC(C)C)c1` (stereo not given) [Nutlin-3]: -0.59. `COCC[n+]1c2c(n(Cc3cnccn3)c1C)C(=O)c1ccccc1C2=O` [YM155 (Sepantronium Bromide)] gave a Prob-Test of 0.441. The same measure for `CN(C)C(=O)[C@H](O)[C@H](Cc1ccccc1)NC(=O)c1cc2cc(Cl)ccc2[nH]1`: -0.591; for `CS(=O)c1ccc(-c2nc(-c3ccc(F)cc3)c(-c3ccncc3)[nH]2)cc1` (stereo not given): -0.0339; for `CC[N+](CC)(CC)CCOc1cccc(OCC[N+](CC)(CC)CC)c1OCC[N+](CC)(CC)CC.[I-].[I-].[I-]` [Gallamine Triethiodide]: -0.431. In the case of `CN1CCc2nc(C(=O)N[C@H]3C[C@H](C(=O)N(C)C)CC[C@@H]3NC(=O)C(=O)Nc3ccc(Cl)cn3)sc2C1` [Edoxaban], the Prob-Test was -0.089.

As to `Cc1ncc(C[n+]2csc(CCO)c2C)c(N)n1.Cl.[Cl-]` [Thiamine HCl (Vitamin B1)], the Prob-Test was -0.452. The same measure for `NC1(Cc2ccc(Cl)cc2)CCN(c2ncnc3[nH]ccc23)CC1`: -0.493; for `Cc1ccc(Nc2nccc(N(C)c3ccc4c(C)n(C)nc4c3)n2)cc1S(N)(=O)=O` [Pazopanib]: -0.0719. Regarding `CC(C)OC(=O)OCOP(=O)(CO[C@H](C)Cn1cnc2c(N)ncnc21)OCOC(=O)OC(C)C.O=C(O)/C=C\C(=O)O` [Tenofovir Disoproxil Fumarate], the Prob-Test is 0.369.

The compound `Cl.O=S(=O)(c1cccc2cnccc12)N1CCCNCC1` [Fasudil (HA-1077) HCl] had a Prob-Test of -0.185.

As to `CC(C)c1c(C(=O)Nc2ccccc2)c(-c2ccccc2)c(-c2ccc(F)cc2)n1CC[C@@H](O)C[C@@H](O)CC(=O)[O-].CC(C)c1c(C(=O)Nc2ccccc2)c(-c2ccccc2)c(-c2ccc(F)cc2)n1CC[C@@H](O)C[C@@H](O)CC(=O)[O-].[Ca+2]` [Atorvastatin Calcium], the Prob-Test is -0.249. The same measure for `Cc1cc(=O)oc2cc(O)ccc12` [4-Methylumbelliferone (4-MU)]: 0.393; for `C#CCN[C@H]1CCc2ccccc21.CS(=O)(=O)O` [Rasagiline Mesylate]: -0.327.

(Values after the supplement of paper PMC10727501.)
